Assay results: the supplement of paper PMC10849652
Some of the results follow.

The chains behind the UniProt entries cited, without tags or fusion partners. Where a name states a change or a piece, a line headed by the entry shows the natural chain unless it says otherwise.
UniProt Q9UJ83: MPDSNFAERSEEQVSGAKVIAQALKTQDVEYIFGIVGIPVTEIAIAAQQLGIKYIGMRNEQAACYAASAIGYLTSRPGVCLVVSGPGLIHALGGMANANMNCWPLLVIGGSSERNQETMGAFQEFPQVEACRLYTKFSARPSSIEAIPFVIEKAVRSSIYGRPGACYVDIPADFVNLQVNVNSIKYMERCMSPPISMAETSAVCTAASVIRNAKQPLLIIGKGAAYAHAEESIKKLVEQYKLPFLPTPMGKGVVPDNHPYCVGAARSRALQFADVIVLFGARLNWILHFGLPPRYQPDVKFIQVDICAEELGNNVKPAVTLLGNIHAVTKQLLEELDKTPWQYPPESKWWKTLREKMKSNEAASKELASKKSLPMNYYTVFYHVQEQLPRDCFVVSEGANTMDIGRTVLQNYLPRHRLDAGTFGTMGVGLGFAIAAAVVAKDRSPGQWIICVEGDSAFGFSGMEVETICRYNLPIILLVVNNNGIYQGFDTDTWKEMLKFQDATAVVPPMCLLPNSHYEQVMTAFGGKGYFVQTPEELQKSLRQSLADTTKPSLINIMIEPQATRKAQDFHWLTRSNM
UniProt P69905, whole entry, looked up: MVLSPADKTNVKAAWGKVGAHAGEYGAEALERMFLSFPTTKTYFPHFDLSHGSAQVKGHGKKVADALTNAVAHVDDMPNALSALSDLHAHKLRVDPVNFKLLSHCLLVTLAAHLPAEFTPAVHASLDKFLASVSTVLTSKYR
UniProt P43250, whole entry, looked up: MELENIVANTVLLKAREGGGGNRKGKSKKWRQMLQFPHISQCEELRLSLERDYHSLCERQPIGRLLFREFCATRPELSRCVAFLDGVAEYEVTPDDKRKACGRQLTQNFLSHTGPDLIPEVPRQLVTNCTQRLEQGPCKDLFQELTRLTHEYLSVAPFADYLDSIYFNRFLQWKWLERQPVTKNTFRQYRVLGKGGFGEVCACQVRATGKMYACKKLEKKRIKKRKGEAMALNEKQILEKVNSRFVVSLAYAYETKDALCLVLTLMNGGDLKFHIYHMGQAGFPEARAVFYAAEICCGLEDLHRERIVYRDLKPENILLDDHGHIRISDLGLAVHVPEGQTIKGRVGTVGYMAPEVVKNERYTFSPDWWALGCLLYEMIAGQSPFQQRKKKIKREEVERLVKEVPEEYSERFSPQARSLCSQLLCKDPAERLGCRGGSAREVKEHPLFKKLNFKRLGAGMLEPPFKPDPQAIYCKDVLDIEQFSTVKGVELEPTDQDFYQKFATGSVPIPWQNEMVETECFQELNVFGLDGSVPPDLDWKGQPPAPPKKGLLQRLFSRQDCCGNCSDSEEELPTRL
UniProt P06396, whole entry, looked up: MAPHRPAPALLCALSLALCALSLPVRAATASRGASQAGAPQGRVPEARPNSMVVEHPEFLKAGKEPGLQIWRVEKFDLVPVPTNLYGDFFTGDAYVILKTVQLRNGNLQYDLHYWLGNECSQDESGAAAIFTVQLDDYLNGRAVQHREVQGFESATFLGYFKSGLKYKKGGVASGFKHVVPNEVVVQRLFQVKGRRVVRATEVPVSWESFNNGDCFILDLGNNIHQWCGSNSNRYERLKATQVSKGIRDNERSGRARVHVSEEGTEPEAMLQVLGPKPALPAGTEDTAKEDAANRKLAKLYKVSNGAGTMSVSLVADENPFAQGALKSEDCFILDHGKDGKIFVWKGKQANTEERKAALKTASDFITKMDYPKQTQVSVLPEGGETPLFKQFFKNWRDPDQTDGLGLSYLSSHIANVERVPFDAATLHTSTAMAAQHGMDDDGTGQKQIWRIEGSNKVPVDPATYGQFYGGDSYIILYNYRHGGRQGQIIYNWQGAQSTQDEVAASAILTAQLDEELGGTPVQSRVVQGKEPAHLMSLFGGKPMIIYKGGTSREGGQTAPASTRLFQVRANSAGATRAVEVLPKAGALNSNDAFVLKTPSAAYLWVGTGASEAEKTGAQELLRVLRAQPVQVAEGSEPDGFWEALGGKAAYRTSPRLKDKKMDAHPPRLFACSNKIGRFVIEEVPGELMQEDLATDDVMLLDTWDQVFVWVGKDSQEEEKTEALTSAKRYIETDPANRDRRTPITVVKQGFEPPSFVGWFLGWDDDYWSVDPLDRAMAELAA
UniProt Q12789: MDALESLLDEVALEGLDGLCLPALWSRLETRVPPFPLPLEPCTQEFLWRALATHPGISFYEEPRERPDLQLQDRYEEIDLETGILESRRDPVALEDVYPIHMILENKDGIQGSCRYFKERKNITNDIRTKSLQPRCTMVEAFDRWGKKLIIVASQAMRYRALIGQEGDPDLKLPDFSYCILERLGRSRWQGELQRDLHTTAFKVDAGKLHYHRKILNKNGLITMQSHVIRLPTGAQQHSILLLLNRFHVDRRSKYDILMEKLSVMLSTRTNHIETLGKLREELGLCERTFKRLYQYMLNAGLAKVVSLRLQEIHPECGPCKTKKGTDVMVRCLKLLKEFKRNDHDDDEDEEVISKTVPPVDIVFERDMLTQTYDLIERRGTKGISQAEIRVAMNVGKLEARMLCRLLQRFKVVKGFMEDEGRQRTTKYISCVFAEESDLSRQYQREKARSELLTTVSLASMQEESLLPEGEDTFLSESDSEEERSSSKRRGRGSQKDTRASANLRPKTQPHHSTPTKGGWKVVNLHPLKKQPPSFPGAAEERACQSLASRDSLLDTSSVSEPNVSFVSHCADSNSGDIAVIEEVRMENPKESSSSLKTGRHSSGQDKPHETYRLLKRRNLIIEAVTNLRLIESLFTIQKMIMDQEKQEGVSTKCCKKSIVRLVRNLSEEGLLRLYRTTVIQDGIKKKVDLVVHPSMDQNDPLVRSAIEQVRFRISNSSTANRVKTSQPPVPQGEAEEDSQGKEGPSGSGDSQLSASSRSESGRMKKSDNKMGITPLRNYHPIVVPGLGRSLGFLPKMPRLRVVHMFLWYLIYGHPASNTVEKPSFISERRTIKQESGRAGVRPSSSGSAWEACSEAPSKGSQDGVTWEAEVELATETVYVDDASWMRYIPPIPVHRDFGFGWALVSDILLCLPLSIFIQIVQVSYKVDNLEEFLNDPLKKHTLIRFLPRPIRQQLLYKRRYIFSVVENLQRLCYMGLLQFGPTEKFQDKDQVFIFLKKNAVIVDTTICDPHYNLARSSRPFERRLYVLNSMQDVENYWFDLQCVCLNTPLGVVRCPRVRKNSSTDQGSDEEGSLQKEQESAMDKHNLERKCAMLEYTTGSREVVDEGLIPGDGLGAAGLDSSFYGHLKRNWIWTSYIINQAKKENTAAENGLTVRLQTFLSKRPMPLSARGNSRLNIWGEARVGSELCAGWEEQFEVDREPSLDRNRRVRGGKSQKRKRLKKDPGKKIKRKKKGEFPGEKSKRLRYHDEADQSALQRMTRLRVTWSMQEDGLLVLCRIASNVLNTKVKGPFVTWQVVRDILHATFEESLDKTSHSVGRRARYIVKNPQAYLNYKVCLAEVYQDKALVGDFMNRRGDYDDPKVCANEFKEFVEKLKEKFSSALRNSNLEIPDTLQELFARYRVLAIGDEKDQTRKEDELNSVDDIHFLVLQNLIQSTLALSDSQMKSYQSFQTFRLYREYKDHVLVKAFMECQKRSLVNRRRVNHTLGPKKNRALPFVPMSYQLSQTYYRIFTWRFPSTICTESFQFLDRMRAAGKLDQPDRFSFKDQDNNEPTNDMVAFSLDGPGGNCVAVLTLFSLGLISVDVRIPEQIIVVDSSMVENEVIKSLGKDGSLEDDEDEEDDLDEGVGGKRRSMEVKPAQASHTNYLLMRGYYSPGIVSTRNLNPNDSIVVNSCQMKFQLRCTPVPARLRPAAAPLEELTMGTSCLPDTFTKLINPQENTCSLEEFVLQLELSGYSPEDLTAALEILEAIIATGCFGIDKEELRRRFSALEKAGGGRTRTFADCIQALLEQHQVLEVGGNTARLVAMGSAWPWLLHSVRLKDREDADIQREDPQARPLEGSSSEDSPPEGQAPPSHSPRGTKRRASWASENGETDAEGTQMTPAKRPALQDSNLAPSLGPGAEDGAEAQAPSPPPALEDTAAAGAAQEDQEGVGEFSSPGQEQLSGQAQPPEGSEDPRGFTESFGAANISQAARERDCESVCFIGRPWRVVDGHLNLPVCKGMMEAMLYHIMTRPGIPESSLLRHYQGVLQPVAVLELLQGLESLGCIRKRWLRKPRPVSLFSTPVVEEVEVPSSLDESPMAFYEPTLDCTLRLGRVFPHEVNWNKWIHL
UniProt P02008: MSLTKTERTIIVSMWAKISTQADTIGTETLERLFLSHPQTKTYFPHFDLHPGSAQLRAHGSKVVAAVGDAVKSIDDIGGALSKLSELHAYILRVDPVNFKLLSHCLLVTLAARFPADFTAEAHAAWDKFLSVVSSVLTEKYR
UniProt Q68CZ6: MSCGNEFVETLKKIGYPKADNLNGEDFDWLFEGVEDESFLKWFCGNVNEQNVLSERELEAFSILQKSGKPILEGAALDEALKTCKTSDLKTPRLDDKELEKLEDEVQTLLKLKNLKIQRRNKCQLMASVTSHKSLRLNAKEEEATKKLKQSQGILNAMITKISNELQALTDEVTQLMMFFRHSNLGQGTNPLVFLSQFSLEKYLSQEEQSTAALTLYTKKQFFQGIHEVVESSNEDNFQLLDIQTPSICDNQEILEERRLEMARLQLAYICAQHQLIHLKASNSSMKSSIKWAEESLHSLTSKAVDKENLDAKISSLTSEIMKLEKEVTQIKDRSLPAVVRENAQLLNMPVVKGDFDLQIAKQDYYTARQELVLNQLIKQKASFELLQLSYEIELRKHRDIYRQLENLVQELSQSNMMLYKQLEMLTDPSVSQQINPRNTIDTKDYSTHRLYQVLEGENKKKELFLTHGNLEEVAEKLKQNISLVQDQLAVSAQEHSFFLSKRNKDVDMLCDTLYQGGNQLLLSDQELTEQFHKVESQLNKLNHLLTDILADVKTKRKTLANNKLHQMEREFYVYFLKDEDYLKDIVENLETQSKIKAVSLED
UniProt P48637: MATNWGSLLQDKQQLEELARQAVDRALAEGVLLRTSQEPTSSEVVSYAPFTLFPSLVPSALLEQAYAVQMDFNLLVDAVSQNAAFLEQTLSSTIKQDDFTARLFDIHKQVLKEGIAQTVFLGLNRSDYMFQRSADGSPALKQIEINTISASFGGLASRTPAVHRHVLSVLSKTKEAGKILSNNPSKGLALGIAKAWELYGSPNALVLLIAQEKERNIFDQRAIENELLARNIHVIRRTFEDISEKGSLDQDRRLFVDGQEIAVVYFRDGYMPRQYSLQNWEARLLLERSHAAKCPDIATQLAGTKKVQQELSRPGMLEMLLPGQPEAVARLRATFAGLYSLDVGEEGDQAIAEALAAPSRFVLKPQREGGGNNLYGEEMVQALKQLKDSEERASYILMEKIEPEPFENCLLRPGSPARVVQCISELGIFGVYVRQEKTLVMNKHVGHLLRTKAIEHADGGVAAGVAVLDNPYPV

Assays:
Assay in all cases: log2 fold change, soluble protein after heating vs DMSO (PISA); higher = thermal stabilisation; K562 lysate, 10 uM; active = over 0.2 and 3.5 SD of the protein, either way, in both replicates (recomputed)
[1] = compound: NCC(=O)Nc1ccc(-n2nc(C(F)(F)F)cc2-c2ccc3c(ccc4ccccc43)c2)cc1
Summary of the method: (§1)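 K562 pellets were dounce-homogenised in PBS pH 7.4 with 1 mM MgCl2, and the crude extract at 1 mg/mL protein was treated with 10 μM compound for 30 min. Aliquots were heated for 3 min across 48°C-58°C, pooled, and brought to 0.5% NP-40 at 4°C; soluble protein was the supernatant after 21,000xg for 90 min. Soluble protein was quantified by TMTpro 16plex LC-MS/MS with channel sums equalised, and reported as log2 fold change in thermal stability against DMSO controls, with values from duplicates.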

vorinostat = compound: O=C(CCCCCCC(=O)Nc1ccccc1)NO [vorinostat]
Summary of the method: as §1

silmitasertib = compound: O=C(O)c1ccc2c(c1)nc(Nc1cccc(Cl)c1)c1ccncc12 [silmitasertib]
Summary of the method: as §1

[2] = compound: O=C1NC(=O)C(c2cnc3ccccn23)=C1c1cn2c3c(cc(F)cc13)CN(C(=O)N1CCCCC1)CC2
Summary of the method: as §1

entospletinib = compound: c1cn2cc(-c3ccc4cn[nH]c4c3)nc(Nc3ccc(N4CCOCC4)cc3)c2n1 [entospletinib]
Summary of the method: as §1

Target | log2 fold change [1] | log2 fold change (vorinostat) | log2 fold change (silmitasertib) | log2 fold change [2] | log2 fold change (entospletinib)
HACL1 (UniProt Q9UJ83) | inactive: 0.017 | inactive: 0.084 | inactive: -0.014 | inactive: -0.014 | inactive: -0.017
HBA1 (UniProt P69905) | inactive: -0.084 | inactive: 0.141 | inactive: -0.061 | inactive: 0.036 | inactive: -0.048
GRK6 isoform 2 (UniProt P43250) | inactive: 0.001 | inactive: -0.227 | active: 0.48 | inactive: -0.012 | inactive: -0.123
GSN (UniProt P06396) | inactive: 0.045 | inactive: 0.068 | inactive: 0.004 | inactive: -0.012 | inactive: 0.005
HAGH (UniProt Q16775) | inactive: 0.019 | inactive: 0.151 | inactive: 0.01 | inactive: 0.003 | inactive: 0.018
GTF3C1 (UniProt Q12789) | inactive: 0.029 | inactive: -0.191 | inactive: 0.035 | inactive: -0.004 | inactive: -0.005
HBZ (UniProt P02008) | inactive: -0.127 | inactive: 0.154 | inactive: -0.014 | inactive: 0.024 | inactive: 0
HAUS3 (UniProt Q68CZ6) | inactive: 0.007 | active: -0.618 | inactive: -0.009 | inactive: 0.004 | inactive: 0.007
GSS (UniProt P48637) | inactive: -0.02 | inactive: 0.116 | inactive: -0.003 | inactive: -0.004 | inactive: 0

Laid out differently: entries from further up
Target	log2 fold change [1]	log2 fold change (vorinostat)	log2 fold change (silmitasertib)	log2 fold change [2]	log2 fold change (entospletinib)
HBZ (UniProt P02008)	inactive: -0.127	inactive: 0.154	inactive: -0.014	inactive: 0.024	inactive: 0
HAUS3 (UniProt Q68CZ6)	inactive: 0.007	active: -0.618	inactive: -0.009	inactive: 0.004	inactive: 0.007
